This experiment can be described thus: qHTS Assay for Lipid Storage Modulators in Drosophila S3 Cells.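 For cell number change: cells counted by Cell Tracker Red CMTPX staining in the red channel.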 Conditions: BODIPY lipid droplet fluorescence, 18-24 h; for cell number change: measured here: cell count max response, cells fed with added oleic acid. Summed up: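 Drosophila S3 cells loaded with oleic acid (400 uM, as added) and compounds at several concentrations; lipid droplets imaged by 488-nm laser-scanning cytometry, 500–530 nm intensity and object ratio to cell channel. Percent activity normalized to 20 uM Triacsin C.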
(Quantitative high-throughput screening tests each substance at several concentrations.)

Where [1] appears, read: measured here: lipid fluorescence (Fed channel) AC50, cells fed with added oleic acid.
Where [2] appears, read: measured here: cell number channel AC50, cells fed with added oleic acid.

The list shows a part of the results. These are further read-outs of the screen, such as a control signal, another cell line or another target. No call is given for them. Compounds called inactive in the main read-out are mostly missing here. The note in brackets gives the kind of curve behind each potency; many fits are weak.

Consider `CN(C)CCNC(=O)c1cc2c(=O)n(C)c3ccccc3c2n1C`, for which the cell number change was found to be 3.81%. Also, under setting [1], the concentration at half-maximal activity (AC50) was 0.517 µM [falling, single point].

Consider `C/C(CC(=O)NC(C)c1ccccc1)=N\NC(N)=S` (stereo not drawn), for which the cell number change was -8.11%. For the same compound, under setting [2], the AC50 is 6.51 µM [rising, single point].

On to `CC(C)Cc1ccc(C(C)C(=O)OCC(=O)c2c[nH]c3ccccc23)cc1` (stereo not drawn), for which the cell number change is -66.6%. The AC50 under setting [2] is 18.4 µM [falling, partial curve]. In addition, the concentration at half-maximal activity (AC50) under setting [1] was 0.651 µM [falling, partial curve, poor fit].

In the case of `CCC(NC(=O)OC(C)(C)C)C(=O)Oc1ccc2c3c(c(=O)oc2c1)CCC3` (stereo not drawn), the cell number change came out at 16.2%. Further, the AC50 under setting [1] is 6.51 µM [falling, single point].

In the case of `COc1cccc(NC(=O)CN(C)C(=O)CNC(=O)c2sc3ccccc3c2Cl)c1`, the cell number change was determined as 3.07%.

As to `CC(=O)Nc1ccc(S(=O)(=O)NNC(=O)c2ccc(S(=O)(=O)N3CCCCC3)cc2)cc1`, the cell number change was 22.1%. In addition, the half-maximal activity concentration (AC50) under setting [1] is 0.58 µM [falling, single point].

For the compound `CCn1c(SCC(=O)N2CCCC(C)C2)nc2c1c(=O)n(C)c(=O)n2C` (stereo not drawn), the cell number change was 7.89%. Under setting [1], the concentration at half-maximal activity (AC50) was 35.5 µM [rising, single point].

As for `CCCCC(CC)C(=O)Nc1ccccc1C(=O)NC(C)C` (stereo not drawn), the cell number change amounted to 7.5%. Moreover, the AC50 under setting [1] was 0.00517 µM [rising, full curve, poor fit].

For the compound `CC(=O)Nc1ccc(Oc2nc(-c3ccccn3)nc3ccccc23)cc1`, the cell number change is -23.3%. For the same compound, the AC50 under setting [1] is 23.1 µM [falling, single point].

Turning to `COc1ccccc1CNC(=O)N1CCN(c2ccccc2)CC1`, the cell number change stood at 17.1%.

Regarding `Cc1ccc(OCCNC(=O)CCC(=O)N2CCOCC2)cc1`, the cell number change is 14.7%. For the same compound, the concentration at half-maximal activity (AC50) under setting [1] is 8.2 µM [rising, partial curve].

Take `CCCN(CC1CC1)C(=O)CSc1nnc(-c2cc(-c3cccs3)nc3ccccc23)o1`: the cell number change was 75.4%. Moreover, under setting [2], the AC50 is 18.4 µM [rising, single point].

Turning to `C=CCc1c(C)nc(C)nc1N/N=C/c1ccccc1`, the cell number change came to 59.4%. The AC50 under setting [2] was 13 µM [rising, partial curve]. The AC50 under setting [1] is 3.26 µM [rising, single point].

`COc1ccc(NC(=O)CN(c2cc(C)cc(C)c2)S(=O)(=O)c2c(C)noc2C)cc1OC`: the cell number change was -20.7%. Also, under setting [1], the AC50 is 18.4 µM [falling, single point].

As to `Cc1nc2scc(C)n2c(=O)c1S(=O)(=O)N1CCN(c2ccc(F)cc2)CC1`, the cell number change is -43%. The half-maximal activity concentration (AC50) under setting [2] was 32.6 µM [falling, single point]. Further, the AC50 under setting [1] was 0.58 µM [falling, single point].

As to `CCn1c(COc2ccc3c(c2)OCO3)nnc1SCC(=O)c1ccccc1`, the cell number change was -30.1%. Also, the AC50 under setting [2] was 29.1 µM [falling, single point].

Regarding `COc1cccc(C(C)NC(=O)C2CCCC2)c1` (stereo not drawn), the cell number change came to 2.65%.

Take `O=C(COc1ccc2c(c1)oc(=O)c1ccccc12)NC(Cc1ccc(Cl)cc1)C(=O)O` (stereo not drawn): the cell number change turned out to be 11.5%. In addition, under setting [1], the AC50 was 2.91 µM [rising, single point].

Take `Cc1cc(C(=O)Nc2sc3c(c2C#N)CCC(C(C)(C)C)C3)no1` (stereo not drawn): the cell number change came out at 33.3%. The AC50 under setting [2] is 29.1 µM [rising, single point].

On to `CC(C)Oc1ccc(Cc2cnc(=S)[nH]c2N)cc1`, for which the cell number change was 44.5%. Besides, the AC50 under setting [1] is 6.51 µM [falling, single point].

Take `CC(C)Sc1ccc([N+](=O)[O-])cc1C(=O)Nc1ccncc1`: the cell number change came out at 17.8%. Moreover, the AC50 under setting [2] was 1.64 µM [rising, partial curve, poor fit]. The AC50 under setting [1] is 0.517 µM [rising, partial curve, poor fit].

Take `COCCCNC(=O)c1cc(Sc2nnc(C)s2)nc2ccccc12`: the cell number change is 31.8%. For the same compound, under setting [2], the AC50 was 2.59 µM [rising, full curve]. Besides, the AC50 under setting [1] was 6.51 µM [rising, partial curve, poor fit].

As for `Cc1noc(C)c1S(=O)(=O)N1CCCC(C(=O)N2CCc3ccccc3C2)C1` (stereo not drawn), the cell number change is -8.47%. Besides, the AC50 under setting [1] was 1.46 µM [rising, partial curve, poor fit].

For `COc1ccccc1-c1cc(C(=O)N2CCN(c3ccccc3OC)CC2)no1`, the cell number change was -44%. Also, the half-maximal activity concentration (AC50) under setting [2] was 2.06 µM [falling, partial curve]. Moreover, the AC50 under setting [1] is 3.66 µM [falling, partial curve].

Regarding `CC(OC(=O)c1ccccc1Nc1ccc(SC(F)F)cc1)C(N)=O` (stereo not drawn), the cell number change was -37.2%. Also, under setting [2], the AC50 is 32.6 µM [falling, single point].

Turning to `Cn1ccc(C(=O)Nc2cccnc2Cl)n1`, the cell number change was -38.1%. In addition, the AC50 under setting [2] is 0.164 µM [falling, full curve]. Also, the AC50 under setting [1] was 29.1 µM [rising, single point].

For `COCCn1c(=S)[nH]c2ncccc2c1=O`, the cell number change was found to be 5.66%.

Turning to `FC(F)(F)C1=CC(c2ccc(Cl)cc2)=NCCN1`, the cell number change is 16.3%. Besides, under setting [1], the AC50 was 0.146 µM [falling, full curve, poor fit].

For the compound `O=C(CSc1nc(O)c(C2CCCCC2)c(=O)[nH]1)Nc1ccccc1Cl`, the cell number change is 6.25%. In addition, the concentration at half-maximal activity (AC50) under setting [1] is 1.16 µM [rising, single point].

For the compound `Cn1c(=O)oc2cc(S(=O)(=O)Nc3cccc(C(=O)O)c3)ccc21`, the cell number change was -3.02%. Besides, under setting [1], the half-maximal activity concentration (AC50) is 8.2 µM [falling, partial curve].

Turning to `CCOc1ccc(NC(=O)CCNS(=O)(=O)c2cccc3nonc23)cc1`, the cell number change was determined as 31.2%. For the same compound, the AC50 under setting [1] is 0.116 µM [rising, full curve, poor fit].

Take `CCCC(C)NC(=O)c1cccc(Oc2ccccc2)c1` (stereo not drawn): the cell number change is -48.3%. Further, under setting [1], the concentration at half-maximal activity (AC50) was 18.4 µM [falling, partial curve, poor fit].

With `COCCN1C(=O)N(c2cccc(C)c2)C(=O)C1CC(=O)Nc1ccc(OC)cc1` (stereo not drawn), the cell number change is -8.56%. Also, under setting [1], the concentration at half-maximal activity (AC50) was 29.1 µM [rising, single point].

For `CCOC(=O)N1CCN(C(=S)Nc2ccccc2C)CC1`, the AC50 under setting [1] is 29.1 µM [falling, single point].

In the case of `CCOC(=O)[C@@H]1[C@H]2COc3cc(OC)ccc3[C@@H]2N2C(=O)N(c3cccc(F)c3)C(=O)[C@@]12C`, the cell number change is -2.4%. Further, under setting [1], the AC50 is 7.31 µM [rising, partial curve].

Take `O=C(/C=C/c1ccc(OC(F)F)cc1)Nc1cccc(S(=O)(=O)N2CCOCC2)c1`: the cell number change is 56.5%. Besides, the half-maximal activity concentration (AC50) under setting [2] is 0.326 µM [rising, full curve].

Consider `COc1ccc(OCCC(=O)Nc2ccc(S(N)(=O)=O)cc2)cc1`, for which the cell number change turned out to be 46.6%. Further, under setting [2], the AC50 was 13 µM [rising, partial curve, poor fit]. The concentration at half-maximal activity (AC50) under setting [1] was 29.1 µM [rising, single point].

With `CC(C)(C)OC(=O)N/N=C/c1c[nH]c2ccccc12`, the cell number change was -0.853%. Moreover, the AC50 under setting [1] is 13 µM [rising, single point].

With `CCOC(=O)c1c(-c2cccs2)csc1NC(=O)CCCC(=O)O`, the cell number change was -5.57%. Also, the AC50 under setting [2] was 0.164 µM [falling, full curve, poor fit].

Consider `COc1cc([N+](=O)[O-])ccc1NC(=O)COC(=O)c1n[nH]c2ccccc12`, for which the cell number change is 3.37%. Also, the AC50 under setting [1] is 29.1 µM [rising, single point].

For the compound `Cc1ccc(C(C)C)cc1S(=O)(=O)NC1CC(C)(C)NC(C)(C)C1`, the cell number change was determined as 23.5%. Moreover, the concentration at half-maximal activity (AC50) under setting [2] is 1.16 µM [rising, full curve, poor fit]. Also, under setting [1], the AC50 was 29.1 µM [rising, single point].

For the compound `CC(Oc1ccccc1Cl)C(=O)N1CCCN(C)CC1` (stereo not drawn), the cell number change is -1.1%.

Regarding `CCOC(=O)N1CCC(NS(=O)(=O)c2ccc3c(c2)CCN3C(C)=O)CC1`, the cell number change worked out at 57.3%. Under setting [2], the half-maximal activity concentration (AC50) was 14.6 µM [rising, single point].

With `c1ccc(-c2n[nH]nc2-c2ccccc2)cc1`, under setting [1], the half-maximal activity concentration (AC50) is 0.366 µM [falling, full curve].

With `CC(=O)c1cccc(N2C(=NC(=O)C3CC3)SC3CS(=O)(=O)CC32)c1` (stereo not drawn), the cell number change was 13.7%. Also, the AC50 under setting [1] is 23.1 µM [falling, single point].

For the compound `O=c1cnnc(N/N=C/c2ccc3c(c2)OCO3)[nH]1`, the cell number change came to 24.6%.

Regarding `CC1CCCN(C(=O)CN(c2ccccc2)S(=O)(=O)c2ccc(F)cc2)C1` (stereo not drawn), the cell number change is 12.3%. Moreover, under setting [1], the concentration at half-maximal activity (AC50) was 2.91 µM [rising, full curve].

Turning to `O=C1CCCc2c1cnc1ncnn21`, the cell number change is -9.74%. In addition, the AC50 under setting [1] was 4.11 µM [rising, full curve].

On to `CC(=O)C1=C(O)C(=O)N(CCc2c[nH]c3ccccc23)C1c1ccco1` (stereo not drawn), for which the cell number change was -3.09%. The AC50 under setting [1] is 0.013 µM [falling, full curve, poor fit].

Turning to `COc1ccc(NC(=O)c2cccc(N3C(=O)C4CCC(C)CC4C3=O)c2)c(OC)c1` (stereo not drawn), the cell number change came out at 15.8%.

As to `CCCn1c(CN2CCN(c3cccc(Cl)c3)CC2)nc2c1c(=O)n(C)c(=O)n2C`, the cell number change is -0.395%.

As for `COc1ccc(Cl)cc1S(=O)(=O)N1CCC(C(=O)NCc2ccccn2)CC1`, the cell number change is 18.5%. The concentration at half-maximal activity (AC50) under setting [2] is 0.461 µM [falling, full curve, poor fit].

Turning to `O=C(CC1Oc2ccccc2NC1=O)NCCCN1CCN(Cc2ccccc2)CC1` (stereo not drawn), the cell number change is -28.9%. For the same compound, the AC50 under setting [1] is 32.6 µM [falling, single point].

On to `OCCNc1ncnc2ccc(Br)cc12`, for which the cell number change is -18.9%. In addition, under setting [1], the concentration at half-maximal activity (AC50) is 29.1 µM [falling, single point].

Turning to `COc1ccc(-c2cc(C(F)(F)F)nc(S(=O)(=O)CCCC(=O)Nc3cccnc3Cl)n2)cc1OC`, the cell number change was -140%. Further, the AC50 under setting [2] is 29.1 µM [falling, partial curve]. Besides, the AC50 under setting [1] is 29.1 µM [falling, partial curve, poor fit].

With `Cc1cc(C)n2cc(CSc3nnc(-c4ccccc4)o3)nc2n1`, the cell number change is -1.67%. The AC50 under setting [1] is 0.58 µM [rising, single point].

In the case of `CCNC(=O)COC(=O)c1cc(-c2ccco2)nc2ccccc12`, the cell number change is -49.4%.

With `O=c1[nH]c(C2CCN(S(=O)(=O)c3ccc(S(=O)(=O)NC4CC4)cc3)CC2)nc2c1nnn2Cc1cccc(F)c1`, the cell number change is -18.1%.

Turning to `O=[N+]([O-])c1cc(S(=O)(=O)C(F)(F)F)ccc1N1CCN(c2ccccc2)CC1`, the cell number change was -4.22%. Under setting [1], the AC50 was 13 µM [falling, partial curve].

With `O=C1CC(Sc2ncccn2)C(=O)N1c1ccccc1` (stereo not drawn), the cell number change is -58.4%. Further, the concentration at half-maximal activity (AC50) under setting [2] was 4.11 µM [falling, single point].

One may read the AC50 as the concentration giving half of the maximal activity seen. Low readings indicate activity at low concentration, high ones activity only at high concentration.

These data come from PubChem BioAssay AID2685 (National Center for Advancing Translational Sciences (NCATS), 2010).
